Experimental findings from article PMC4591343 are described below.

Chains of the proteins cited; added tags and fusions are not shown. Lines headed by an entry give the natural chain unless they say otherwise; changes in a name come on top.
UniProt O75838: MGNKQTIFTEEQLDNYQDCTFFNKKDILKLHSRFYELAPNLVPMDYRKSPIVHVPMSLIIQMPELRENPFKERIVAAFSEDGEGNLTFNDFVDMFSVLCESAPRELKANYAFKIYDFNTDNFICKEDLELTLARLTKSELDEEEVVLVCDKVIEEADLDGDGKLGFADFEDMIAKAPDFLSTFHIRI

Results are given in words; binding and its absence hold for the method and conditions named. Binding seen in cells or lysates may run through a third protein. Some entries that bind do so weakly or less than the wild type.

This experiment concerns the target CIB2^R186W-GFP (human calcium and integrin binding protein 2 with p.Arg186Trp, GFP-tagged) (human) (UniProt O75838). Put plainly: co-IP; HEK 293 cells transfected with both constructs; lysed by sonication in RIPA buffer; antibody to GFP on Protein A-Sepharose CL-4B beads, overnight at 4°C; western blot with antibodies against GFP and DsRed. For orientation: In western blotting, separated proteins are transferred to a membrane and probed.

B1: Dsred-Whirlin (protein, UniProt Q9P202 1-907)
chain: MNAPLDGLSVSSSSTGSLGSAAGAGGGGGAGLRLLSANVRQLHQALTALLSEAEREQFTHCLNAYHARRNVFDLVRTLRVLLDSPVKRRLLPMLRLVIPRSDQLLFDQYTAEGLYLPATTPYRQPAWGGPDSAGPGEVRLVSLRRAKAHEGLGFSIRGGSEHGVGIYVSLVEPGSLAEKEGLRVGDQILRVNDKSLARVTHAEAVKALKGSKKLVLSVYSAGRIPGGYVTNHIYTWVDPQGRSISPPSGLPQPHGGALRQQEGDRRSTLHLLQGGDEKKVNLVLGDGRSLGLTIRGGAEYGLGIYITGVDPGSEAEGSGLKVGDQILEVNGRSFLNILHDEAVRLLKSSRHLILTVKDVGRLPHARTTVDETKWIASSRIRETMANSAGFLGDLTTEGINKPGFYKGPAGSQVTLSSLGNQTRVLLEEQARHLLNEQEHATMAYYLDEYRGGSVSVEALVMALFKLLNTHAKFSLLSEVRGTISPQDLERFDHLVLRREIESMKARQPPGPGAGDTYSMVSYSDTGSSTGSHGTSTTVSSARNTLDLEETGEAVQGNINALPDVSVDDVRSTSQGLSSFKPLPRPPPLAQGNDLPLGQPRKLGREDLQPPSSMPSCSGTVFSAPQNRSPPAGTAPTPGTSSAQDLPSSPIYASVSPANPSSKRPLDAHLALVNQHPIGPFPRVQSPPHLKSPSAEATVAGGCLLPPSPSGHPDQTGTNQHFVMVEVHRPDSEPDVNEVRALPQTRTASTLSQLSDSGQTLSEDSGVDAGEAEASAPGRGRQSVSTKSRSSKELPRNERPTDGANKPPGLLEPTSTLVRVKKSAATLGIAIEGGANTRQPLPRIVTIQRGGSAHNCGQLKVGHVILEVNGLTLRGKEHREAARIIAEAFKTKDRDYIDFLVTEFNVML
Take B1: the binding entry was “binds”.
